{
  "source": "patent US20070281323A1",
  "about": "“Methods Of Detecting Lp-PLA2 Activity” (priority 2004, published 2007)",
  "origin": "cited, not measured here",
  "test_system": "Lp-PLA2",
  "settings": "fluvastatin XL versus placebo, patients with type 2 diabetes (42 fluvastatin, 47 placebo)",
  "note": "At least one compound was matched to its structure with a doubt left.",
  "data": [
    {"smiles": "CC(C)n1c(/C=C/C(O)CC(O)CC(=O)O)c(-c2ccc(F)cc2)c2ccccc21", "note": "(stereo not shown) [Fluvastatin, fluvastatin]", "values": [
      {"measurement": "decrease of Lp-PLA2 activity", "result": 22.8, "unit": "%"}
    ]}
  ]
}
